## Screening data, single-dose tests

Protein sequences, listed by entry. Tags and fused reporters are not part of them.
UniProt P9WPC5, whole entry: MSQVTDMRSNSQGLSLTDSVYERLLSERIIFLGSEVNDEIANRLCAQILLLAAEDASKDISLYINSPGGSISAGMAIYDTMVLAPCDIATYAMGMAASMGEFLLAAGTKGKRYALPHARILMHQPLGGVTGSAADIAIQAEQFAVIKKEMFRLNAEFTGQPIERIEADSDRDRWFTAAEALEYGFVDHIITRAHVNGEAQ
UniProt P9WPC3, whole entry partner: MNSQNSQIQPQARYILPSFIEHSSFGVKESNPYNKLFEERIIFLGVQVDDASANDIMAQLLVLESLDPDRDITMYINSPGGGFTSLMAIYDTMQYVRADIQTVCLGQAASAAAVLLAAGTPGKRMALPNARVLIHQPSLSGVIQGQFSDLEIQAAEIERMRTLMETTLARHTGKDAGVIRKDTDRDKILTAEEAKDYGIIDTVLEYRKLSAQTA

A: 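Assay of Toxoplasma gondii numbers, read through their beta-galactosidase reporter with a colour substrate. Compounds at 10 µM. Higher reads as fewer parasites (inferred from which compounds were picked for retests). Of about 67,000 compounds tested this way, about 260 (0.38%) reached 50% or more in at least one test.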
B: 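Protease assay of ClpP1P2, read by the AMC dye that it sets free. Target: ClpP1P2, Mycobacterium tuberculosis (UniProt P9WPC5 and UniProt P9WPC3). Tested at 50 µM. Higher reads as stronger inhibition, judged from the few compounds that gave an IC50. Most other retested compounds had strongly negative values. Size under these conditions: about 69,000 compounds, about 10 of them at 50% or above in at least one test.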
C: 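Cell assay of Leishmania donovani living inside macrophages; the read-out is not stated. Tested at 30 µM. Direction is inferred from retests: higher values go with stronger inhibition. About 69,000 compounds were tested under these conditions; 1.5% (about 1,000) showed 50% or more at least once.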
D: 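Whole-parasite assay of Trypanosoma brucei over 72 hours; the read-out is not stated. Compounds at 30 µM. The record gives no direction; compounds that gave an IC50 in retests scored well above the rest, so higher reads as stronger inhibition. Values scatter widely below zero; nearly all retest evidence comes from the higher of the two concentrations used. Of about 64,000 compounds tested this way, about 940 (1.5%) reached 50% or more in at least one test.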

Each number is a percent effect as filed. The record does not define 0% and 100%; most values in the screen are far below 50% and negative numbers occur (in some assays of this library far below -100). Compounds were drawn at random from those tested, without regard to their results. Two or more numbers in one place are separate tests of the same structure; such repeats can differ widely. A dash means the value is not listed here; it may have been measured.

structure,A,B,C,D
COCCN1CCO[C@H]2CCN(C(=O)c3ccnnc3)CC[C@@H]21,-,-6.21%,-,-
CCS(=O)(=O)c1ccc(N2CCC(NC(=O)c3cnn(C)c3)CC2)cc1,2.203%,-3.857%,13.26%,39.75%
CC(C)[C@H](NC(=O)NC1CCS(=O)(=O)C1)C(=O)NCc1cccnc1 (some centres not stated),-9.803%,-7.272%,-26.96%,-16.61%
Cn1cc2c(n1)C(CNC(=O)Cc1ccsc1)OCC2 (configuration not stated),-0.7761%,-5.195%,2.84%,33.11%
CC(=O)N(Cc1ncc(C)o1)C1CCN(CCc2ccncc2)C1 (configuration not stated),0.5717%,-10.4%,10.57% and -18.25%,-12.13%
COc1nn(C)cc1C(=O)NCC(OC)c1ccccc1C (configuration not stated),11.28%,-5.762%,18.34%,-15.88%
c1cc(-c2nc(CN3CCn4c(nnc4C4CC4)C3)cs2)cs1,-10.3%,2.955%,28.06%,-5.895%
COc1cccc2c(=O)n(Cc3cccnc3)cnc12,5.988%,-7.817%,-2.206%,-22.03%
O=C(O)C(F)(F)F.O=C(O)C(F)(F)F.[H][C@@]12OCCN(Cc3ccccn3)[C@@]1([H])CC[C@H]2OCC(=O)N1CCCC1,1.764%,-,3.526% and 14.01%,-55.74%
Cc1ccc(-c2ccnc(N[C@H]3COC[C@@H]3N3CCCC3)n2)c(C)n1,3.66%,-19.56%,32.73%,-
Fc1cccc(C2(CNC3CCSC3)CCOCC2)c1 (configuration not stated),15.45%,27.68%,8.424%,-16.11%
[H][C@@]12CCN(C(=O)COC)C[C@@]1([H])O[C@@H](c1nnc(C3CC3)o1)C2,2.366%,-,7.049%,-7.51%
[H][C@]12CC[C@]([H])(CN(S(=O)(=O)c3cccnc3)C1)N(Cc1ccccc1)C2,-3.746%,-,41.22%,0.2073%
O=C(NC1CC1)C1CCN(c2nc3nc[nH]c(=O)c3s2)CC1,-,3.285%,3.009%,-2.494%
Cc1noc(C)c1-c1cc(CCC2CN(C(=O)CN)CCO2)ncn1 (configuration not stated),4.105%,-12.33%,38.88%,9.412%
COc1ccc(CC(=O)N2CCN(c3nccn3C)CC2)cc1.Cl,4.57%,-,12.33%,-9.479%
CCOCC1CN(S(C)(=O)=O)Cc2nn(C)cc21 (configuration not stated),13.68%,-2.977%,8.295%,-6.775%
CN(C)C[C@@H]1CN(C2CCN(c3ccccc3Cl)CC2)C[C@@H]1CO,-6.698%,-10.76%,52.98%,-0.5502%
CCc1nc(CN2CCN(C(=O)Cc3c(C)noc3C)CC2)cs1,-15.71%,5.25%,5.544%,-10.6%
N#Cc1nc(COc2ccc3c(c2)OCO3)oc1NC1CC1,21.86%,-7.088%,11.69%,-15.65%
Nc1nc2c(c(N3CCN(C(=O)c4cccs4)CC3)n1)CCCC2,1.366%,-6.806%,18.27%,-40.1%
O=C(O)C(F)(F)F.[H][C@]12CN(Cc3ccc(C)cc3)C[C@@]1([H])S(=O)(=O)CC[C@@H]2C(=O)NCC(C)C,26.07%,-,-6.029%,-11.51%
c1cc(CN2CCCC(c3noc(C4CC4)n3)C2)no1 (configuration not stated),1.551%,1.06%,15.24%,6.919%
COCCOc1ncccc1CNC(=O)N1CCOCC1,-4.883%,3.728%,20.17%,-61.88%
COCCNc1cc(-c2ccccc2S(N)(=O)=O)c2cc[nH]c2n1,5.991%,-15.77%,22.78%,-15.84%
O=C1C(NS(=O)(=O)c2cccc(F)c2)CCN1Cc1ccccc1 (configuration not stated),-14.12%,-24.24%,-13.07%,-
CC(=O)NCCNC(=O)NCCc1c(C)cc(C)cc1C,-17.34%,0.7788%,16.9%,17.96%
CCOC(=O)CNC(=O)N1CCCC(CNC(=O)c2ccco2)C1 (configuration not stated),-11.34%,-7.256%,32.3%,-3.948%
CC(C)Cc1noc(C2CCCN(C(=O)CCc3cnn(C)c3)C2)n1 (configuration not stated),6.821%,6.361%,5.747%,-32.06%
Cc1nc[nH]c1-c1nccn1CCN1CCCOC1=O,-4.52%,7.297%,-8.661%,-19.01%
COCCN1CCCC12CCN(c1ncccn1)CC2,-,6.421%,-,-
O=C(CC1CCc2ccccc21)N1CCC(C(=O)O)(n2ccnc2)CC1 (configuration not stated),3.474%,3.441%,-12.02%,-14.49%
Cc1cc(CN2CCN(C(=O)CCc3cccc(F)c3F)CC2)on1,-4.847%,-15.71%,13.7%,3.003%
COc1ccc(CN2CC[C@H](NC(C)=O)[C@@H](O)CC2)c(F)c1,-6.402%,0.1127%,6.131% and -7.537%,-4.544%
CSCCC(=O)N1CCC(CCC(=O)NCC2CCCO2)CC1 (configuration not stated),5.431%,-0.3834%,5.49%,-11.5%
O=C(Cc1ccccn1)N1CCN(C(=O)CC2CCCC2)CC1,8.424%,-24.3%,-0.8532%,-
COc1cccc(-c2cc(NCC(=O)O)nc3[nH]ccc23)n1,-,-24.32%,-15.8%,-16.38%
Cc1cccc(S(=O)(=O)NC(=O)CCc2cscn2)c1,20.65%,-3.498%,44.1%,-
CC(C)n1cnnc1CNC(=O)CCCOc1ccccc1Cl,-1.202%,-3.345%,-23.34%,-50.12%
NC(=O)C1CN(C(=O)Nc2ccccc2SC(F)(F)F)CCO1 (configuration not stated),6.462%,4.007%,18.98%,18.42%
CCNC(=O)NC(=O)CN1CCOC(c2ccccc2Cl)C1 (configuration not stated),3.718%,2.823%,7.788%,-6.326%
O=C(NCCN1CCCCCC1=O)c1ccc(=O)[nH]n1,6.166%,-29%,6.128%,-4.786%
CCCN(Cc1ccc(C#N)cc1)Cc1nnsc1Cl,-4.909%,-1.523%,-38.9%,-14.99%
CCN(CC)S(=O)(=O)NCCc1cc(C)ccc1OC,2.879%,5.394%,10.8%,-26.24%
CN1CCN(S(=O)(=O)c2cccnc2)c2cnccc21,9.87%,1.181%,-0.01844%,-3.164%
CC(C)Cc1nc(CN2CCOC(Cn3cccn3)C2)no1 (configuration not stated),-23.03%,-20.01%,-30.35%,-4.205%
CC(=O)NCC(=O)N1CCN(C)c2ncccc2C1,1.417%,-4.286%,5.464%,-21.5%
COc1no[n+]([O-])c1-c1ccccc1,12.99%,-17.55%,-23.96%,-7.44%
CCOc1cc(C(=O)N2CCCC(c3cc(C(N)=O)[nH]n3)C2)ccn1 (configuration not stated),-1.695%,-1.005%,10.33%,22.98%
CCCS(=O)(=O)N1CCN(c2cc(-n3cccc3)nc(C)n2)CC1,-4.657%,-11.03%,-0.3985%,-14.66%
COc1cccc2c1CCN(C(=O)NCc1nnc3ccccn13)C2,3.558%,-4.212%,13.71%,0.1533%
Cc1cc(C(=O)N(CC2CCCO2)c2ccncc2)c(C)o1 (configuration not stated),4.717%,-9.115%,6.945%,-2.094%
O=C(O)C(F)(F)F.O=C(O)C(F)(F)F.[H][C@@]12CCN(Cc3ccccn3)[C@]1([H])CC[C@H](COC)O2,-7.352%,-,47.55%,-93.59%

The first 3 entries again:

structure	A	B	C	D
COCCN1CCO[C@H]2CCN(C(=O)c3ccnnc3)CC[C@@H]21	-	-6.21%	-	-
CCS(=O)(=O)c1ccc(N2CCC(NC(=O)c3cnn(C)c3)CC2)cc1	2.203%	-3.857%	13.26%	39.75%
CC(C)[C@H](NC(=O)NC1CCS(=O)(=O)C1)C(=O)NCc1cccnc1 (some centres not stated)	-9.803%	-7.272%	-26.96%	-16.61%

Measurements from “University of Dundee, Small-Polar-MMV Screening Library” (2021), ChEMBL document CHEMBL3988442.